Data reported in paper PMC3160312.
Results are given in words; binding and its absence hold for the method and conditions named. In cells and extracts the contact can be indirect. Some results given as binding are weak or reduced against the parent protein; the word gives no strength. For some of these results: Sequences can lack the tags named with a protein.

Chains of the proteins cited; added tags and fusions are not shown. Lines headed by an entry give the natural chain unless they say otherwise; changes in a name come on top. A line that says so, or that is headed by a name, gives the form on record, which may keep a tag or linker. Residues count along the entry.
UniProt Q60598: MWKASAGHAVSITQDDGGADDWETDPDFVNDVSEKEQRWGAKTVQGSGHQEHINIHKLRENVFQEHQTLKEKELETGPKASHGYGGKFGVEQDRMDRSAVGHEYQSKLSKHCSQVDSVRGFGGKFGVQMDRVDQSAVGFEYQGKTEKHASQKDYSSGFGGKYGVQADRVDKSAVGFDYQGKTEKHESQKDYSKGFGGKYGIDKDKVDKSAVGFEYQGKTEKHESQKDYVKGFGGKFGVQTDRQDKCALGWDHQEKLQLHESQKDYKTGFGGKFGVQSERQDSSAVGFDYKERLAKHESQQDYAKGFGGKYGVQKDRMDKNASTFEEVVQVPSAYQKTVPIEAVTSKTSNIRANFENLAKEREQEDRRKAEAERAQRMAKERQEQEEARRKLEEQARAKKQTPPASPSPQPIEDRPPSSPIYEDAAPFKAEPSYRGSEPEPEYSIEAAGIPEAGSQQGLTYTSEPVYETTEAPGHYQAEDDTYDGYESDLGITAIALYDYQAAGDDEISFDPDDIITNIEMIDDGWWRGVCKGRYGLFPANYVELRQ
GST-cortactin C-terminal part (amino acids 336-542): residues 336-542 of Q60598
GST-cortactin[336–542(W525K)] (Q60598, form named): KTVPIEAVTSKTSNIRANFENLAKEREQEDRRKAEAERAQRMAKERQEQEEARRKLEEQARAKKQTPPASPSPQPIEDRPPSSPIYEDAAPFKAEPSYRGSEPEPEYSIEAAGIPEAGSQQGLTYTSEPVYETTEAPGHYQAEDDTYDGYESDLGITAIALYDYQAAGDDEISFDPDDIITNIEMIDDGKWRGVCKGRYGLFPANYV

Key:
Assay in all cases: pull-down; 5 µg GST-cortactin protein bound to glutathione-agarose beads, incubated with lysates of 293T cells (transfected or not with SH3PXD2B); SH3PXD2B detected by western blotting; only the target purified
[1] = molecular target: GST-cortactin fusion protein (full-length mouse cortactin) (mouse) (UniProt Q60598)
[2] = molecular target: GST-cortactin[336–542(W525K)] (mouse) (UniProt Q60598)
[3] = molecular target: GST-cortactin C-terminal part (amino acids 336-542) (mouse) (UniProt Q60598)

B1: SH3PXD2B carrying a C-terminal V5 epitope tag (full-length human SH3PXD2B) (protein, UniProt A1X283 1-911)
chain: MPPRRSIVEVKVLDVQKRRVPNKHYVYIIRVTWSSGSTEAIYRRYSKFFDLQMQMLDKFPMEGGQKDPKQRIIPFLPGKILFRRSHIRDVAVKRLIPIDEYCKALIQLPPYISQCDEVLQFFETRPEDLNPPKEEHIGKKKSGGDQTSVDPMVLEQYVVVANYQKQESSEISLSVGQVVDIIEKNESGWWFVSTAEEQGWVPATCLEGQDGVQDEFSLQPEEEEKYTVIYPYTARDQDEMNLERGAVVEVIQKNLEGWWKIRYQGKEGWAPASYLKKNSGEPLPPKPGPGSPSHPGALDLDGVSRQQNAVGREKELLSSQRDGRFEGRPVPDGDAKQRSPKMRQRPPPRRDMTIPRGLNLPKPPIPPQVEEEYYTIAEFQTTIPDGISFQAGLKVEVIEKNLSGWWYIQIEDKEGWAPATFIDKYKKTSNASRPNFLAPLPHEVTQLRLGEAAALENNTGSEATGPSRPLPDAPHGVMDSGLPWSKDWKGSKDVLRKASSDMSASAGYEEISDPDMEEKPSLPPRKESIIKSEGELLERERERQRTEQLRGPTPKPPGVILPMMPAKHIPPARDSRRPEPKPDKSRLFQLKNDMGLECGHKVLAKEVKKPNLRPISKSKTDLPEEKPDATPQNPFLKSRPQVRPKPAPSPKTEPPQGEDQVDICNLRSKLRPAKSQDKSLLDGEGPQAVGGQDVAFSRSFLPGEGPGRAQDRTGKQDGLSPKEISCRAPPRPAKTTDPVSKSVPVPLQEAPQQRPVVPPRRPPPPKKTSSSSRPLPEVRGPQCEGHESRAAPTPGRALLVPPKAKPFLSNSLGGQDDTRGKGSLGPWGTGKIGENREKAAAASVPNADGLKDSLYVAVADFEGDKDTSSFQEGTVFEVREKNSSGWWFCQVLSGAPSWEGWIPSNYLRKKP
[1]
  binding: binds

B2: SH3PXD2B (endogenous, 293T cells) (protein, UniProt A1X283 1-911)
chain: MPPRRSIVEVKVLDVQKRRVPNKHYVYIIRVTWSSGSTEAIYRRYSKFFDLQMQMLDKFPMEGGQKDPKQRIIPFLPGKILFRRSHIRDVAVKRLIPIDEYCKALIQLPPYISQCDEVLQFFETRPEDLNPPKEEHIGKKKSGGDQTSVDPMVLEQYVVVANYQKQESSEISLSVGQVVDIIEKNESGWWFVSTAEEQGWVPATCLEGQDGVQDEFSLQPEEEEKYTVIYPYTARDQDEMNLERGAVVEVIQKNLEGWWKIRYQGKEGWAPASYLKKNSGEPLPPKPGPGSPSHPGALDLDGVSRQQNAVGREKELLSSQRDGRFEGRPVPDGDAKQRSPKMRQRPPPRRDMTIPRGLNLPKPPIPPQVEEEYYTIAEFQTTIPDGISFQAGLKVEVIEKNLSGWWYIQIEDKEGWAPATFIDKYKKTSNASRPNFLAPLPHEVTQLRLGEAAALENNTGSEATGPSRPLPDAPHGVMDSGLPWSKDWKGSKDVLRKASSDMSASAGYEEISDPDMEEKPSLPPRKESIIKSEGELLERERERQRTEQLRGPTPKPPGVILPMMPAKHIPPARDSRRPEPKPDKSRLFQLKNDMGLECGHKVLAKEVKKPNLRPISKSKTDLPEEKPDATPQNPFLKSRPQVRPKPAPSPKTEPPQGEDQVDICNLRSKLRPAKSQDKSLLDGEGPQAVGGQDVAFSRSFLPGEGPGRAQDRTGKQDGLSPKEISCRAPPRPAKTTDPVSKSVPVPLQEAPQQRPVVPPRRPPPPKKTSSSSRPLPEVRGPQCEGHESRAAPTPGRALLVPPKAKPFLSNSLGGQDDTRGKGSLGPWGTGKIGENREKAAAASVPNADGLKDSLYVAVADFEGDKDTSSFQEGTVFEVREKNSSGWWFCQVLSGAPSWEGWIPSNYLRKKP
[2]
  binding: no binding
[1]
  binding: binds
[3]
  binding: binds
